Laboratory results taken from PubChem BioAssay AID540256 (National Center for Advancing Translational Sciences (NCATS), 2011).
Hit rate of the full screen: of about 300,000 compounds, about 3,700 (1.2%) were called active. Inconclusive results, whose numbers are uncertain, are shown with a selection of clear calls. Calls follow the shape of the full dose curve; tested in HEK293 cells. A potency beside an inconclusive call is a rough fit, not a confirmed value.

assay: qHTS for Inhibitors of binding or entry into cells for Lassa Virus; conditions: Lassa virus pseudotype entry inhibition, cell reporter; activity change, negative = inhibition: at 37.9 µM (top of the series) unless noted; also: nearly all actives have a fitted effect of over 50% in size
% is scaled to controls: 0 for no effect and ±100 for the full control effect; potency is read from the fitted curve at half-maximal effect.

With `CCOC(=O)C1CCN(C(=O)c2ccc(OC)cc2OC)CC1` as the compound, how does the “activity change, negative = inhibition” value read?
The value was inactive: -16.2%.

Which Potency does the source give for `O=C(CN1C(=O)COc2ccc(S(=O)(=O)N3CCCCCC3)cc21)NCc1ccc(Cl)cc1` here?
The Potency was inconclusive: 35.5 µM [inhibitor, single point].

Which Potency does the source give for `Cn1cnnc1SCc1ccc(C(=O)N=Nc2c(O)n(Cc3ccc(Cl)cc3)c3ccccc23)cc1` here?
Its Potency is inconclusive: 35.5 µM [inhibitor, single point].

For `Cc1cc(C)nc(Nc2n[nH]c(-c3ccccc3N)n2)n1`, which Potency is on record?
Its Potency is active: 6.31 µM.

Which Potency does the source give for `Cn1c(N)c(C(=O)COC(=O)CCc2ccccc2)c(=O)n(C)c1=O` here?
The Potency was inconclusive: 5.62 µM [activator, single point].

Which Potency does the source give for `Cc1cc(-c2nn(-c3ccccc3)cc2/C=C2\SC(N)=NC2=O)ccc1OC(C)C` here?
The Potency was inconclusive: 6.31 µM [inhibitor, single point].

With `O=C(COc1ccc(-n2cnnn2)cc1)Nc1cccc(Cl)c1Cl` as the compound, how does the Potency read?
The Potency was inconclusive: 11.2 µM [activator, single point].

For `CCOC(=O)N1CCN(C(=O)c2noc(C(C)C)c2[N+](=O)[O-])CC1`, which “activity change, negative = inhibition” value is on record?
The value was inactive: 0.628%.

Which Potency does the source give for `Cc1cccc(-c2nc(S(=O)(=O)c3ccc(F)cc3)c(N3CCN(c4ccccc4)CC3)o2)c1` here?
Its Potency is inconclusive: 3.16 µM [inhibitor, partial curve, poor fit].

With `O=C(CSc1nc2[nH]ncc2c(=O)n1-c1ccccc1Br)NCc1ccco1` as the compound, how does the “activity change, negative = inhibition” value read?
The value was inactive: 3.13%.

With `COc1cccc(NC(=O)CN(C)C(=O)c2ccccc2-c2nc3ccccc3s2)c1` as the compound, how does the “activity change, negative = inhibition” value read?
Its value is inactive: -19.4%.

Which Potency does the source give for `NC(=S)N/N=C/c1ccc(C23CC4CC(CC(C4)C2)C3)cc1` here?
The Potency was inconclusive: 1.58 µM [inhibitor, full curve, poor fit].

Which Potency does the source give for `O=C(COC(=O)c1cccc(Cl)c1)Nc1ccc2[nH]c(=O)[nH]c2c1` here?
The Potency was inconclusive: 35.5 µM [activator, single point].

With `CC(=O)CC(c1ccccc1)S(=O)(=O)c1ccc([N+](=O)[O-])cc1` (stereo not drawn) as the compound, how does the Potency read?
The Potency was inconclusive: 7.08 µM [activator, full curve].

Which Potency does the source give for `Cc1ccc(S(=O)(=O)c2nc(-c3ccccc3F)oc2N2CCCCC2)cc1` here?
The Potency was inconclusive: 15.8 µM [inhibitor, single point].

For `O=C(COC(=O)c1ccc(S(=O)(=O)NCc2ccco2)cc1)NC1CCCCCC1`, which “activity change, negative = inhibition” value is on record?
Its value is inactive: 2.91%.

For `CC1(C)OC2C(CO)OC(n3cnc4c(=S)nc[nH]c43)C2O1` (stereo not drawn), which Potency is on record?
Its Potency is inconclusive: 31.6 µM [inhibitor, partial curve, poor fit].

Which Potency does the source give for `Cc1ccc(NC(=O)c2cc(C(C)(C)C)nn2Cc2ccccc2)cc1` here?
Its Potency is active: 2.82 µM.

With `Cc1ccc(NC2=C(c3ccc(C(F)(F)F)cc3)C(=O)c3ccccc32)cc1C` as the compound, how does the “activity change, negative = inhibition” value read?
The value was inactive: 22.1% [at 46.1 µM].

With `Cc1ccc(Nc2nc(N)nc(CN3CCN(c4ccccc4F)CC3)n2)cc1` as the compound, how does the Potency read?
The Potency was inconclusive: 32.6 µM [inhibitor, single point].

Which Potency does the source give for `Cc1ccc(C(=O)n2c(N)nc3ccccc32)cc1` here?
Its Potency is inconclusive: 0.891 µM [inhibitor, full curve, poor fit].

Which Potency does the source give for `COc1ccc(N2C(=O)CN(Cc3cc(OC)c(OC)c(OC)c3)C2=S)cc1` here?
The Potency was inconclusive: 15.8 µM [inhibitor, partial curve, poor fit].

Which “activity change, negative = inhibition” value does the source give for `CCN(CC)c1ccc(NC(=O)C(C)C)cc1` here?
Its value is inactive: 1.38%.

Which “activity change, negative = inhibition” value does the source give for `Cc1ccc(-c2cc(C(=O)Nc3ccc(S(=O)(=O)Nc4ncccn4)cc3)[nH]n2)c(O)c1C` here?
Its value is inactive: -6.82%.

For `CCc1c(C)sc2c1CCN(Cc1cccc(F)c1)C2c1ccccc1` (stereo not drawn), which Potency is on record?
The Potency was inconclusive: 10 µM [inhibitor, partial curve, poor fit].

Which Potency does the source give for `Cc1cc(NS(=O)(=O)c2ccc(NC(=O)CN3C(=O)NC(C)(c4ccccc4)C3=O)cc2)nc(C)n1` (stereo not drawn) here?
Its Potency is inconclusive: 7.08 µM [activator, partial curve, poor fit].

For `CCN(Cc1ccccc1)S(=O)(=O)c1ccc(C(=O)N(CCCN(C)C)c2nc3cc4c(cc3s2)OCCO4)cc1`, which Potency is on record?
The Potency was inconclusive: 14.1 µM [inhibitor, partial curve, poor fit].

Which Potency does the source give for `Cc1nc(SCC(=O)NC(C)(C#N)C2CC2)c2c(-c3cccs3)csc2n1` (stereo not drawn) here?
The Potency was inconclusive: 35.5 µM [inhibitor, single point].

For `CC1CN(CN2C(=O)c3ccccc3C2=O)CC(C)O1` (stereo not drawn), which Potency is on record?
Its Potency is inconclusive: 0.82 µM [activator, partial curve].

With `N#CCc1ccc(NC(=O)/C=C/c2ccc([N+](=O)[O-])o2)cc1` as the compound, how does the Potency read?
The Potency was active: 7.94 µM.

With `O=C(Nc1cc2c(cc1Br)OCCCO2)c1cccnc1` as the compound, how does the “activity change, negative = inhibition” value read?
Its value is inactive: 17.1%.

For `Cc1c(C(C)C)c(=O)n(-c2ccc(S(=O)(=O)NC(C)C)cc2)n1C`, which Potency is on record?
Its Potency is inconclusive: 35.5 µM [inhibitor, partial curve, poor fit].

For `Cc1ccc(F)c(NC(=O)c2ccc(Cn3cc(Cl)cn3)cc2)c1`, which “activity change, negative = inhibition” value is on record?
Its value is inactive: -0.729%.

Which Potency does the source give for `CCN(CC)c1ccc(/C=N/NC(=O)c2ccoc2C)cc1` here?
The Potency was inconclusive: 22.4 µM [inhibitor, single point].

Which Potency does the source give for `O=C(O)/C=C/c1cccc(OCc2ccccc2)c1` here?
The Potency was inconclusive: 0.891 µM [inhibitor, full curve, poor fit].

Which “activity change, negative = inhibition” value does the source give for `CCC(CC)C(=O)Nc1ccc(OCc2cc(=O)n3c4c(sc3n2)CCCC4)cc1` here?
Its value is inactive: 7.79% [at 46.1 µM].

Which Potency does the source give for `C=CCN1CN(CCc2ccccc2)CNC1=S` here?
The Potency was inconclusive: 8.91 µM [activator, partial curve, poor fit].

For `COc1ccc(CNC(=O)CSc2nnnn2-c2ccc(O)cc2)cc1`, which Potency is on record?
The Potency was inconclusive: 14.6 µM [inhibitor, single point].

For `Cc1c(C(=O)O)oc2ccc(S(=O)(=O)NCc3ccc4c(c3)OCO4)cc12`, which “activity change, negative = inhibition” value is on record?
Its value is inactive: -1.37%.

With `O=C(NCCc1ccccc1)C1CC(=O)N(c2ccc3c(c2)OCCO3)C1` (stereo not drawn) as the compound, how does the “activity change, negative = inhibition” value read?
The value was inactive: 24.8%.

With `Cn1cc(S(=O)(=O)c2cccc(Cl)c2)c(=O)c2cc(F)c(N3CCCCCC3)cc21` as the compound, how does the Potency read?
Its Potency is inconclusive: 3.98 µM [inhibitor, partial curve, poor fit].

With `O=C(Nc1cccc(Cl)c1)Nc1ccccc1C(=O)NCc1ccco1` as the compound, how does the “activity change, negative = inhibition” value read?
The value was inactive: -18.3%.

Which Potency does the source give for `CN1/C(=C\C=N\NC(=O)c2ccc(O)cc2)C(C)(C)c2ccccc21` here?
Its Potency is inconclusive: 25.9 µM [inhibitor, single point].

Which Potency does the source give for `CC(/C=C/C(=O)c1ccc(C)cc1)=C\c1ccccc1` here?
Its Potency is inconclusive: 35.5 µM [inhibitor, single point].

Which Potency does the source give for `COc1ccc(/C=C/C(=O)N(C)Cc2cccs2)cc1S(=O)(=O)N1CCOCC1` here?
Its Potency is inconclusive: 1 µM [inhibitor, partial curve, poor fit].

Which Potency does the source give for `CN1C(=O)C2ON(c3ccccc3)C(c3cccs3)C2C1=O` (stereo not drawn) here?
The Potency was inconclusive: 2.06 µM [inhibitor, partial curve, poor fit].

Which Potency does the source give for `Cc1ccc(CNC(=O)c2cc(COc3c(F)cccc3F)on2)s1` here?
The Potency was inconclusive: 22.4 µM [inhibitor, partial curve, poor fit].

For `COc1ccc(NS(=O)(=O)c2cccc(NC(=O)c3cnccn3)c2)cc1Br`, which Potency is on record?
Its Potency is inconclusive: 35.5 µM [inhibitor, single point].

With `COc1cc(C(=O)Nc2nc(-c3cccs3)cs2)cc(OC)c1OC` as the compound, how does the Potency read?
Its Potency is active: 10.3 µM.

For `COc1ccc(Cn2c(C)nc([N+](=O)[O-])c2SCC(=O)O)cc1[N+](=O)[O-]`, which “activity change, negative = inhibition” value is on record?
The value was inactive: -14%.

With `CCCCOC(=O)Cn1c(=O)c2c(nc(Br)n2Cc2ccccc2)n(C)c1=O` as the compound, how does the “activity change, negative = inhibition” value read?
The value was inactive: -3.45%.

With `CC1(C)CC(N(CCc2ccccc2)Cc2ccccc2)CCO1` (stereo not drawn) as the compound, how does the Potency read?
The Potency was inconclusive: 35.5 µM [inhibitor, single point].

For `COc1ccccc1N1CCN(C(=O)c2ccc(CS(=O)c3ccccc3C)o2)CC1` (stereo not drawn), which Potency is on record?
Its Potency is inconclusive: 10 µM [inhibitor, partial curve, poor fit].

With `Cc1nc2c(-c3ccc(Cl)cc3)c(C)[nH]n2c(=O)c1Cc1ccccc1` as the compound, how does the Potency read?
The Potency was inconclusive: 12.6 µM [inhibitor, partial curve, poor fit].

With `CC(C(=O)Nc1ccccc1C(=O)N1CCOCC1)N(c1ccc(Cl)cc1)S(C)(=O)=O` (stereo not drawn) as the compound, how does the “activity change, negative = inhibition” value read?
Its value is inactive: 6.24%.

With `CSc1ncccc1C(=O)OCC(=O)c1ccccc1Br` as the compound, how does the “activity change, negative = inhibition” value read?
Its value is inactive: 16.4%.

Which Potency does the source give for `CCOc1ccccc1-c1nc(C(N)=O)c2[nH]c(=O)n(-c3cccc(C)c3)c2n1` here?
Its Potency is inconclusive: 35.5 µM [inhibitor, single point].

With `Cc1ccc(/C=C/C2=NN(Cc3ccccc3)C(=O)CC2)cc1` as the compound, how does the Potency read?
The Potency was inconclusive: 11.2 µM [inhibitor, partial curve].

Which “activity change, negative = inhibition” value does the source give for `CCOC(=O)CSC1=C(C#N)C(c2ccc3c(c2)OCO3)CC(=O)N1` (stereo not drawn) here?
The value was inactive: -29.5%.

Which Potency does the source give for `CN1CCN(NC(=O)c2ccc(Cl)cc2Cl)CC1` here?
The Potency was inconclusive: 16.4 µM [activator, partial curve].

For `Cc1nn(C)c(C)c1CN(C)C(=O)c1cnn2c1NC(c1ccccc1)CC2C(F)(F)F` (stereo not drawn), which Potency is on record?
The Potency was inconclusive: 16.4 µM [inhibitor, partial curve, poor fit].

With `COc1ccc2oc(C(=O)Nc3nccs3)c(C)c2c1` as the compound, how does the Potency read?
Its Potency is inconclusive: 17.8 µM [inhibitor, single point].

For `COc1ccc(NC(=O)C2C3CCC4C(CCC32)C4(Cl)Cl)cc1` (stereo not drawn), which “activity change, negative = inhibition” value is on record?
Its value is inactive: -7.64%.

With `CC1(C)CC(=O)C(CC(=O)NC2CCCc3ccccc32)C(=O)C1` (stereo not drawn) as the compound, how does the “activity change, negative = inhibition” value read?
Its value is inactive: -1.73%.

For `O=C(CSc1ccccn1)Nc1nc2c(ccc3ccccc32)s1`, which Potency is on record?
The Potency was inconclusive: 10 µM [inhibitor, partial curve, poor fit].

With `CC(=O)c1ccc(-c2ccc(C(=O)NC3CCCCCC3)o2)cc1` as the compound, how does the “activity change, negative = inhibition” value read?
The value was inactive: 0.637%.

Which Potency does the source give for `CN1C(=O)COc2ccc(C(=O)c3ccccc3C(=O)O)cc21` here?
Its Potency is inconclusive: 1.46 µM [inhibitor, full curve].

For `O=C(CSc1nc2ccccc2c(=O)n1NC(=O)c1ccccc1)c1ccc(Cl)cc1`, which Potency is on record?
The Potency was inconclusive: 6.51 µM [activator, single point].
